Here are results for two molecules from PMC9594975.

These are yes or no findings as the source states them, for the method shown. In cells and extracts the contact can be indirect. Some binding calls cover weakened binding; strength is not graded here.

In this test the target is T1, BCL2 (mouse (endogenous in osteoclast precursors of C57BL/6 mice)), P10417.
T1 chain: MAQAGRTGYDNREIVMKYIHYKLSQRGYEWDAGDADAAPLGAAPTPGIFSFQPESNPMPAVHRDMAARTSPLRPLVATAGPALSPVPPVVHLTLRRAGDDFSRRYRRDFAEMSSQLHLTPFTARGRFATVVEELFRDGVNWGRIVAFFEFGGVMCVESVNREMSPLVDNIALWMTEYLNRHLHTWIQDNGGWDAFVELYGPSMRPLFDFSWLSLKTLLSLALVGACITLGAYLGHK
As to the kind of experiment: co-IP; lysates of osteoclast precursors treated with metformin (0, 10, 20 uM) for 5 d with 30 ng/mL M-CSF and 50 ng/mL RANKL, with or without lentiviral BNIP3 overexpression; 100 ug total protein with 5 ug anti-BCL2 or anti-BECN1 antibody overnight at 4 C, protein A/G-sepharose beads; non-specific IgG as negative control; immunoblot. The settings on record: remark: other sources report otherwise.

B1: BNIP3, O55003 1-187 (protein)
chain: MSQSGEENLQGSWVELHFSNGNGSSVPASVSIYNGDMEKILLDAQHESGRSSSKSSHCDSPPRSQTPQDTNRAEIDSHSFGEKNSTLSEEDYIERRREVESILKKNSDWIWDWSSRPENIPPKEFLFKHPKRTATLSMRNTSVMKKGGIFSADFLKVFLPSLLLSHLLAIGLGIYIGRRLTTSTSTF
With B1, the binding entry is reported as “binds”.

B2: BECN1, O88597 1-448 (protein)
chain: MEGSKASSSTMQVSFVCQRCSQPLKLDTSFKILDRVTIQELTAPLLTTAQAKPGETQEEEANSGEEPFIETRQDGVSRRFIPPARMMSTESANSFTLIGEASDGGTMENLSRRLKVTGDLFDIMSGQTDVDHPLCEECTDTLLDQLDTQLNVTENECQNYKRCLEILEQMNEDDSEQLQRELKELALEEERLIQELEDVEKNRKVVAENLEKVQAEAERLDQEEAQYQREYSEFKRQQLELDDELKSVENQVRYAQIQLDKLKKTNVFNATFHIWHSGQFGTINNFRLGRLPSVPVEWNEINAAWGQTVLLLHALANKMGLKFQRYRLVPYGNHSYLESLTDKSKELPLYCSGGLRFFWDNKFDHAMVAFLDCVQQFKEEVEKGETRFCLPYRMDVEKGKIEDTGGSGGSYSIKTQFNSEEQWTKALKFMLTNLKWGLAWVSSQFYNK
Turning to B2, the binding result is “binds”.
